# Among all 220,000 compounds or so, about 770 (0.35%) were called active. The inconclusive results got no clear call from the source; some entries with a clear call stand among them for comparison. Cut-off read from the data, not from the text of the source: active = binding response below about 49% or above about 150%; inconclusive = no clear call, values can overlap the other calls; inactive = in between.
# Chains of the proteins cited; added tags and fusions are not shown.
# UniProt P09471, whole entry, looked up: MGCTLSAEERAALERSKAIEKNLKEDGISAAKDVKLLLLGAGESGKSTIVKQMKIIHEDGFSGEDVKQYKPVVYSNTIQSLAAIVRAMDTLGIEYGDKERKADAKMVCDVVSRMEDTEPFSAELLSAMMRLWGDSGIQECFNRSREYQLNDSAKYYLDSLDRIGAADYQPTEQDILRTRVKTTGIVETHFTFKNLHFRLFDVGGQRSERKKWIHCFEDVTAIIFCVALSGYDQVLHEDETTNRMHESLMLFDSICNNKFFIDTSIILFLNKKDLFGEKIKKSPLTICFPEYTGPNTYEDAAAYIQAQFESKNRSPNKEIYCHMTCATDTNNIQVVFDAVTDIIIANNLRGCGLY
# Biological target: Guanine nucleotide-binding protein G(o) subunit alpha (Homo sapiens) (UniProt P09471)
# Assay: RGS7-Galphao binding modulators, primary screen, biochemical, multiplexed bead flow cytometry (AID 1439);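 note: fluorescent Galphao held in activated GDP-AlF4 state binding bead-coupled RGS7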
# Settings: at 10 µM, actives lie on both sides
row,Structure (SMILES),binding response (% of control)
1,O=c1cc(-c2ccccc2)c2cc(Cl)c(O)c(CN3CCOCC3)c2o1,inconclusive: 90%
2,O=C(Cn1nnc2ccccc21)c1ccc([N+](=O)[O-])cc1,inconclusive: 106%
3,COc1ccc(C/C(C)=N/NC(=S)Nc2ccc(Cl)cc2)cc1,inconclusive: 104%
4,C/C(=N\NC(=O)c1n[nH]c2c1CCC2)c1ccco1,inconclusive: 76.3%
5,COc1cc2c3nnc(-c4ccc(F)cc4)c-3cn(Cc3cccc(F)c3)c2cc1OC,inactive: 90.7%
6,CCSc1ncnc2sc(C)c(C)c12,inactive: 101%
7,CCOC(=O)CN(C(=O)COc1nc(C)cc(C)c1C#N)c1ccc(Cl)cc1,inconclusive: 182%
8,CC(/C=N/NC(=O)Cn1nnc(N)n1)=C\c1ccc(C(C)C)cc1,inconclusive: 122%
9,CCOc1ccc(NC(=O)c2ccc(NCC(=O)N3CCCCCC3)cc2)cc1,inconclusive: 92.4%
10,Cc1ccccc1NC(=O)Cn1nnc2sc3c(c2c1=O)CC(C)(C)OC3,inconclusive: 362%
11,CCOc1ccc(NC(=O)Cn2sc3nc(C)cc(C)c3c2=O)cc1,inconclusive: 195%
12,O=C(Cn1nnc(-c2ccc(NC(=O)c3ccccc3F)cc2)n1)NCc1ccc(F)cc1,inconclusive: 143%
13,O=C(c1ccc2ccccc2c1)C1CCCN(S(=O)(=O)c2cccnc2)C1 (stereo not drawn),inactive: 107%
14,CC(=O)NC1C2CN3CCN(C2)CC1(Cc1ccccc1)C3 (stereo not drawn),inactive: 100%
15,O=C(O)/C=C/C(=O)Nc1ccc(Cl)c(C(=O)O)c1,inconclusive: 112%
16,CCCCC(=O)OCC(=O)c1[nH]c(C)c(C(C)=O)c1C,inactive: 101%
17,O=C1CC(=O)c2c1cccc2[N+](=O)[O-],inconclusive: 63.9%
18,C=CCn1c(SCC(=O)NNC(=S)Nc2ccccc2)nnc1-c1ccccc1,inconclusive: 26.7%
19,CCN(CC)S(=O)(=O)c1ccc(NN=C2CCN(C(C)C)CC2)c([N+](=O)[O-])c1,inconclusive: 49.7%
20,Nc1cc(Nc2ccc(Br)cc2)nc(N)n1,inconclusive: 133%

# Among those listed so far, 2 contain an aryl methoxy group.
row,Structure (SMILES),binding response (% of control)
3,COc1ccc(C/C(C)=N/NC(=S)Nc2ccc(Cl)cc2)cc1,inconclusive: 104%
5,COc1cc2c3nnc(-c4ccc(F)cc4)c-3cn(Cc3cccc(F)c3)c2cc1OC,inactive: 90.7%

# Continued.

row,Structure (SMILES),binding response (% of control)
1,COc1ccc(OC)c(/C(O)=C/C(=O)C(=O)Nc2cc(C)ccc2OC)c1,inactive: 67.9%
2,COc1ccc(N2CCN(CC(=O)NC(=O)NC(C)(C)C)CC2)cc1,inactive: 106%
3,Cc1cc(OCc2ccccc2)ccc1/C(O)=C1/C(=O)C(=O)N(Cc2cccnc2)C1c1ccncc1 (stereo not drawn),inconclusive: 222%
4,O=C(Cc1c[nH]c2ccccc12)Nc1ccccc1N1CCOCC1,inactive: 96.4%
5,CSC1=N/C(=C\c2ccccc2Cl)C(=O)N1N(C)C,inconclusive: 74.8%
6,CCOCCCNC(=S)N1CCC(NC(=O)C23CC4CC(CC(C4)C2)C3)CC1,inactive: 105%
7,Cc1cc2c(cc1[N+](=O)[O-])NC(CNC(C)C)CC2 (stereo not drawn),inconclusive: 92.2%
8,COc1ccc(C2c3ccc(O)cc3Oc3ncn4nc(-c5ccccn5)nc4c32)cc1OC (stereo not drawn),inconclusive: 59.6%
9,CCOc1nc(-c2ccccc2Cl)nc2ccccc12,inconclusive: 78.3%
10,COC(=O)CCCC1=CC2=CC(=O)C(C)(OC(=O)c3cccs3)C(=O)C2=CN1c1ccc(OC)cc1 (stereo not drawn),inconclusive: 108%
11,CC(C)(C)C1CCC(OC(=O)CN2CCCCC2)CC1 (stereo not drawn),inconclusive: 158%
12,COC(=O)Cc1nnc(Nc2cccc(C)c2)c2ccccc12,inconclusive: -35.7%
13,CC1Cc2ccccc2N1CC(=O)NC(=O)NC1CCCC1 (stereo not drawn),inconclusive: 114%
14,Fc1ccc(N2CCN(Cc3c[nH]c4ccccc34)CC2)cc1,inconclusive: 82.9%
15,Cc1ccc(NC(=O)c2c(C(=O)Nc3ccccc3)sc3nc(C)cc(=O)n23)cc1,inactive: 96.8%
16,NCCSc1c(-c2ccccc2)[nH]c2ccccc12,active: -8.36%
17,Cc1cc(NC(=O)c2cc([N+](=O)[O-])cc([N+](=O)[O-])c2)no1,inconclusive: 95.8%
18,CCCc1cc(=S)n2c([nH]c3ccccc32)c1C#N,inconclusive: -9.22%
19,Cc1ccccc1NC(=O)CC1SC(=Nc2ccc(O)cc2)NC1=O (stereo not drawn),inconclusive: -114%
20,CCN1CCc2c(sc(NC(=O)Nc3ccc(Cl)c(Cl)c3)c2C(N)=O)C1,inactive: 102%

row,Structure (SMILES),binding response (% of control)
1,NC(=O)[C@H]1CC2(CC(c3cccc(NC(=O)COc4ccc(Cl)cc4)c3)=NO2)CN1C(=O)[C@H]1CCC(=O)N1 (stereo partly drawn),inconclusive: 95.8%
2,O=[N+]([O-])c1sccc1CS(=O)(=O)c1ccccc1,inconclusive: 85%
3,CC(C)CC(NC(N)=O)C(=O)NCc1ccc(Cl)cc1 (stereo not drawn),inconclusive: 104%
4,CCc1cc(C(=O)N2CCCC(C(=O)c3cccc4ccccc34)C2)n(C)n1 (stereo not drawn),inactive: 102%
5,COc1ccc(C2=NC(=O)/C(=C\c3cc(OC)c(OC)c(OC)c3)O2)cc1,inactive: 87.5%
6,O=C(COc1ccccc1)NC(=S)Nc1ccc(Br)cn1,inconclusive: -276%
7,O=C(CNC(=O)c1ccc(S(=O)(=O)N2CCCC2)cc1)N/N=C/c1ccco1,inactive: 97.6%
8,COc1ccc(C(=O)C[n+]2ccc(N(C)C)cc2)cc1,inconclusive: 118%
9,Cc1ccc(NC(=O)Cn2sc3nc(C)cc(C)c3c2=O)c(Cl)c1,inconclusive: 255%
10,Cc1ccc(O)c(NC(=O)CN(C)S(=O)(=O)c2ccc(Cl)cc2)c1,inconclusive: -61.4%
11,NS(=O)(=O)c1ccc(N=Nc2c(O)c(C(=O)O)cc3ccccc23)cc1,inconclusive: 50.4%
12,COc1ccc(Oc2cc(C(F)(F)F)cnc2C(N)=O)cc1,inactive: 101%
13,O=C(COC(=O)c1ccc(NS(=O)(=O)c2cccs2)cc1O)Nc1ccc(F)cc1,inconclusive: 97.2%
14,O=C(CN1CCc2ccccc21)NC(=O)NCc1ccccc1,inactive: 100%
15,COc1cccc(-c2nc(N3CCN(C)CC3)c3ccccc3n2)c1O,inconclusive: 91.9%
16,O=C(NCCOc1ccccc1)C(=O)c1c[nH]c2ccccc12,inconclusive: 88%
17,CC(=O)C1=C(O)C(=O)N(c2ccc(Br)cn2)C1c1ccc(Br)cc1 (stereo not drawn),inconclusive: 107%
18,S=c1[nH]nc(C(c2ccccc2)C2CCCCC2)o1 (stereo not drawn),inconclusive: 94.7%

# From PubChem BioAssay AID1439 (NMMLSC, 2008)
